From article PMC7346168

T1: 2-CysPRXA C54D (pseudo-hyperoxidized variant) (Arabidopsis) (UniProt Q96291)
T1 sequence: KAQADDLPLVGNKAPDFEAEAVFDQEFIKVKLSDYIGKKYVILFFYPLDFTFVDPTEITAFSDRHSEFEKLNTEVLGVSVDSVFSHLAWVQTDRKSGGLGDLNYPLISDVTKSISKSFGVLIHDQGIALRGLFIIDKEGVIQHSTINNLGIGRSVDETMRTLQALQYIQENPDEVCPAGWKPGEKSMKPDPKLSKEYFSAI

B1: Ribose-P pyrophosphokinase 3 (protein, UniProt Q93Z66 40-411)
chain: TASVSNRCIKCGVRSLENHSGHRSLDFLSNGDPISLINPNSSSPITMAAATSESGSKSSKRVCLFHSDETRDLAERIVAKSDCIELRSINWKKFDDGFPNLFIQNAQGIRGQHVAFLASFSSPAVIFEQLSVIYALPKLFVSSFTLVLPFFPTGTSERMEDEGDVATAFTLARILSNIPTSRGGPTSLVTFDIHALQERFYFGDTILPCFESGIPLLKSRLQSLPDSDNISIAFPDDGAWKRFHKQLQHYPTIVCNKVRMGDKRIVRIKEGDAEGRHVVIVDDLVQSGGTLIECQKVLAAHGAAKISAYVTHGIFPRSSWKRFKLDTKGDPAEGLSYFWITDSCGMTVKEVMNKPPFEVLSLAGSIASALQV
B2: Dihydroxy-acid dehydratase (protein, UniProt Q9LIR4 35-608)
chain: SAQSVTADPSPPITDTNKLNKYSSRITEPKSQGGSQAILHGVGLSDDDLLKPQIGISSVWYEGNTCNMHLLKLSEAVKEGVENAGMVGFRFNTIGVSDAISMGTRGMCFSLQSRDLIADSIETVMSAQWYDGNISIPGCDKNMPGTIMAMGRLNRPGIMVYGGTIKPGHFQDKTYDIVSAFQSYGEFVSGSISDEQRKTVLHHSCPGAGACGGMYTANTMASAIEAMGMSLPYSSSIPAEDPLKLDECRLAGKYLLELLKMDLKPRDIITPKSLRNAMVSVMALGGSTNAVLHLIAIARSVGLELTLDDFQKVSDAVPFLADLKPSGKYVMEDIHKIGGTPAVLRYLLELGLMDGDCMTVTGQTLAQNLENVPSLTEGQEIIRPLSNPIKETGHIQILRGDLAPDGSVAKITGKEGLYFSGPALVFEGEESMLAAISADPMSFKGTVVVIRGEGPKGGPGMPEMLTPTSAIMGAGLGKECALLTDGRFSGGSHGFVVGHICPEAQEGGPIGLIKNGDIITIDIGKKRIDTQVSPEEMNDRRKKWTAPAYKVNRGVLYKYIKNVQSASDGCVTDE
B3: Plastidial pyruvate kinase 3 (protein, UniProt Q93Z53 56-571)
chain: SIKISEDSRKPKAYAENGAFDVGVLDSSSYRLADSRTSSNDSRRKTKIVCTIGPSSSSREMIWKLAEAGMNVARLNMSHGDHASHQITIDLVKEYNSLFVDKAIAIMLDTKGPEVRSGDVPQPIFLEEGQEFNFTIKRGVSLKDTVSVNYDDFVNDVEVGDILLVDGGMMSLAVKSKTSDLVKCVVIDGGELQSRRHLNVRGKSATLPSITDKDWEDIKFGVDNQVDFYAVSFVKDAKVVHELKNYLKTCSADISVIVKIESADSIKNLPSIISACDGAMVARGDLGAELPIEEVPLLQEEIIRRCRSIHKPVIVATNMLESMINHPTPTRAEVSDIAIAVREGADAIMLSGETAHGKFPLKAVNVMHTVALRTEASLPVRTSASRTTAYKGHMGQMFAFHASIMANTLSSPLIVFTRTGSMAVLLSHYRPSATIFAFTNQRRIMQRLALYQGVMPIYMEFSDDAEDTYARSLKLLQDENMLKEGQHVTLVQSGSQPIWREESTHLIQVRKIKIGG
B4: Allene oxide synthase (protein, UniProt Q96242 34-518)
chain: SGSETPDLTVATRTGSKDLPIRNIPGNYGLPIVGPIKDRWDYFYDQGAEEFFKSRIRKYNSTVYRVNMPPGAFIAENPQVVALLDGKSFPVLFDVDKVEKKDLFTGTYMPSTELTGGYRILSYLDPSEPKHEKLKNLLFFLLKSSRNRIFPEFQATYSELFDSLEKELSLKGKADFGGSSDGTAFNFLARAFYGTNPADTKLKADAPGLITKWVLFNLHPLLSIGLPRVIEEPLIHTFSLPPALVKSDYQRLYEFFLESAGEILVEADKLGISREEATHNLLFATCFNTWGGMKILFPNMVKRIGRAGHQVHNRLAEEIRSVIKSNGGELTMGAIEKMELTKSVVYECLRFEPPVTAQYGRAKKDLVIESHDAAFKVKAGEMLYGYQPLATRDPKIFDRADEFVPERFVGEEGEKLLRHVLWSNGPETETPTVGNKQCAGKDFVVLVARLFVIEIFRRYDSFDIEVGTSPLGSSVNFSSLRKASF
B5: Starch synthase 3 (protein, UniProt F4IAG2 45-1042)
chain: QKKNGEKDSNATSTATNEVSGISKLPAAKVDVQKQSSVVLNERNVLDRSDIEDGSDRLDKKTTDDDDLLEQKLKLERENLRRKEIETLAAENLARGDRMFVYPVIVKPDEDIEVFLNRNLSTLNNEPDVLIMGAFNEWRWKSFTRRLEKTWIHEDWLSCLLHIPKEAYKMDFVFFNGQSVYDNNDSKDFCVEIKGGMDKVDFENFLLEEKLREQEKLAKEEAERERQKEEKRRIEAQKAAIEADRAQAKAETQKRRELLQPAIKKAVVSAENVWYIEPSDFKAEDTVKLYYNKRSGPLTNSKELWLHGGFNNWVDGLSIVVKLVNAELKDVDPKSGNWWFAEVVVPGGALVIDWVFADGPPKGAFLYDNNGYQDFHALVPQKLPEELYWLEEENMIFRKLQEDRRLKEEVMRAKMEKTARLKAETKERTLKKFLLSQKDVVYTEPLEIQAGNPVTVLYNPANTVLNGKPEVWFRGSFNRWTHRLGPLPPQKMEATDDESSHVKTTAKVPLDAYMMDFVFSEKEDGGIFDNKNGLDYHLPVVGGISKEPPLHIVHIAVEMAPIAKVGGLGDVVTSLSRAVQELNHNVDIVFPKYDCIKHNFVKDLQFNRSYHWGGTEIKVWHGKVEGLSVYFLDPQNGLFQRGCVYGCADDAGRFGFFCHAALEFLLQGGFHPDILHCHDWSSAPVSWLFKDHYTQYGLIKTRIVFTIHNLEFGANAIGKAMTFADKATTVSPTYAKEVAGNSVISAHLYKFHGIINGIDPDIWDPYNDNFIPVPYTSENVVEGKRAAKEELQNRLGLKSADFPVVGIITRLTHQKGIHLIKHAIWRTLERNGQVVLLGSAPDPRIQNDFVNLANQLHSSHGDRARLVLTYDEPLSHLIYAGADFILVPSIFEPCGLTQLIAMRYGAVPVVRKTGGLFDTVFDVDHDKERAQAQVLEPNGFSFDGADAPGVDYALNRAISAWYDGREWFNSLCKTVMEQDWSWNRPALEYLELYHSARK
B6: HTPA synthase 1 (protein, UniProt Q9LZX6 40-365)
chain: AVVPNFHLPMRSLEDKNRTNTDDIRSLRVITAIKTPYLPDGRFDLQAYDDLVNTQIENGAEGVIVGGTTGEGQLMSWDEHIMLIGHTVNCFGGRIKVIGNTGSNSTREAIHATEQGFAMGMHGALHINPYYGKTSIEGMNAHFQTVLHMGPTIIYNVPGRTCQDIPPQVIFKLSQNPNMAGVKECVGNNRVEEYTEKGIVVWSGNDDQCHDSRWDHGATGVISVTSNLVPGLMRKLMFEGRNSALNAKLLPLMDWLFQEPNPIGVNTALAQLGVARPVFRLPYVPLPLSKRIEFVKLVKEIGREHFVGDRDVQVLDDDDFILIGRY
B7: Adenylosuccinate synthetase (protein, UniProt Q96529 46-490)
chain: SLSVAADSAATESLGRIGSLSQVSGVLGCQWGDEGKGKLVDILAQHFDIVARCQGGANAGHTIYNSEGKKFALHLVPSGILNEDTTCVIGNGVVVHLPGLFKEIDGLESNGVSCKGRILVSDRAHLLFDFHQEVDGLRESELAKSFIGTTKRGIGPAYSSKVIRNGIRVGDLRHMDTLPQKLDLLLSDAAARFQGFKYTPEMLREEVEAYKRYADRLEPYITDTVHFINDSISQKKKVLVEGGQATMLDIDFGTYPFVTSSSPSAGGICTGLGIAPSVVGDLIGVVKAYTTRVGSGPFPTENLGTGGDLLRLAGQEFGTTTGRPRRCGWLDIVALKFSCQINGFASLNLTKLDVLSDLNEIQLGVAYKRSDGTPVKSFPGDLRLLEELHVEYEVLPGWKSDISSVRNYSDLPKAAQQYVERIEELVGVPIHYIGIGPGRDALIYK
B8: Plastocyanin major isoform (protein, UniProt P42699 69-167)
chain: IEVLLGGGDGSLAFIPNDFSIAKGEKIVFKNNAGYPHNVVFDEDEIPSGVDVAKISMDEQDLLNGAGETYEVALTEPGTYSFYCAPHQGAGMVGKVTVN
B9: Photosystem II factor HCF136 (protein, UniProt O82660 79-403)
chain: DEQLSEWERVFLPIDPGVVLLDIAFVPDEPSRGFLLGTRQTLLETKDGGSTWNPRSIPSAEEEDFNYRFNSISFKGKEGWIIGKPAILLYTADAGENWDRIPLSSQLPGDMVFIKATEDKSAEMVTDEGAIYVTSNRGYNWKAAIQETVSATLNRTVSSGISGASYYTGTFSAVNRSPDGRYVAVSSRGNFFLTWEPGQPYWQPHNRAVARRIQNMGWRADGGLWLLVRGGGLYLSKGTGITEEFEEVPVQSRGFGILDVGYRSEEEAWAAGGSGILLRTRNGGKSWNRDKAADNIAANLYAVKFVDDKKGFVLGNDGVLLRYVG
B10: Phosphofructokinase 5 (protein, UniProt Q8VYN6 53-537)
chain: ASEIQHSKTSASSIDLSDPDWKLKYEKDFEQRFSIPHITDVLPDAEAIRSTFCLKMRSPTEDFVGGYPSDEEWHGYINNNDRVLLKVISYSSPTSAGAECLDHDCSWVEQWIHRAGPREKIYFRPEEVKAAIITCGGLCPGLNDVIRHIVITLEIYGVKNIVGIPFGYRGFSDKDLTEMPLSRKVVQNIHLSGGSLLGVSRGGPSVSEIVDSMEERGINMLFVLGGNGTHAGANAIHNECRKRKIKVAVVGVPKTIDNDILHMDKTFGFDTAVEEAQRAINSAYIEAHSAYHGIGVVKLMGRNSGFIAMQASLASGQVDICLIPEVPFNLHGPNGVLKHLKYLIETKGSAVICVAEGAGQNFLEKTNAKDASGNAVLGDFGVYIQQETKKYFKEISTPIDVKYIDPTYMIRAVRANASDGILCTVLGQNAVHGAFAGYSGITVGIINTHYAYLPITEVIAYPKSVDPNSRMWHRCLTSTGQPDFI
B11: Stearoyl-[acyl-carrier-protein] 9-desaturase 5 (protein, UniProt Q9M879 30-396)
chain: VSMASTIRSATTEVTNGRKLYIPPREVHVQVKHSMPPQKLEIFKSLEGWADETLLTYLKPVEKSWQPTDFLPEPESEGFYDQVKELRERCKELPDDYFVVLVGDMITEEALPTYQTMLNTLDGVRDETGASPTPWAIWTRAWTAEENRHGDLLNKYLYLSGRVDMRQIEKTIQYLIGSGMDPKTENNPYLGFIYTSFQERATFISHGNTARLAKDRGDLKLAQICGTIAADERRHETAYTKIVEKLFEIDPDGTILGLADMMKKKISMPAHLMYDGQDDNLFEHFSTVAQRLGVYTAKDYADILEFLVERWNVETLTDLSSEGHRAQDFVCGLPARIRKIEERAQGRAKEAAKNIPFSWIFGRNIRA
B12: Red chlorophyll catabolite reductase (protein, UniProt Q8LDU4 40-319)
chain: SMEDHDDHLRRKFMEFPYVSPTRKQLMVDLMSTVENRLQSQLLPCNLPPDVRNFNNPNGSAEASLHIRSGDKSSPIDFVIGSWIHCKIPTGVSLNITSISGFLNSSTKAPNFVVELIQSSSKSLVLILDLPHRKDLVLNPDYLKEYYQDTALDSHRQSLLKLPEVNPYVSPSLFVRSAFSPTASMLKIDAEEEDKLEEILRDHVSPAAKEVLEVWLERCVKEEEEKIVVGEEERMELERRDKSFRRKSIEDDLDLQFPRMFGEEVSSRVVHAIKEAFGVL

target: T1, 2-CysPRXA C54D (pseudo-hyperoxidized variant) (Arabidopsis); assay: affinity purification with mass spectrometry; oxidizing: his6-tagged 2-CysPRXA variant (3 mg) on Ni-NTA-agarose pretreated with 1 mM H2O2; leaf extract (50 mg protein) made with 1 mM H2O2; 50 mM HEPES pH 8.0, 1 h, 4 °C; stepwise elution with 1 M NaCl, 10 mM DTT, 250 mM imidazole; hits not found on the column without 2-CysPRX; only the target purified

binding, binds:
B1, B2, B3, B4, B5, B6, B7, B8, B9, B10, B11, B12

These are yes or no findings as the source states them, for the method shown. In cells and extracts the contact can be indirect. A yes stands for co-enrichment or nearness to the bait. Other partners may have been found.
